# Changes are numbered by the printed parent chain. No constants are given. Whether binding was seen depends on the method and setting.
# Chains of the proteins cited; added tags and fusions are not shown. Residues count along the entry.
# UniProt P02769, residues 25-607: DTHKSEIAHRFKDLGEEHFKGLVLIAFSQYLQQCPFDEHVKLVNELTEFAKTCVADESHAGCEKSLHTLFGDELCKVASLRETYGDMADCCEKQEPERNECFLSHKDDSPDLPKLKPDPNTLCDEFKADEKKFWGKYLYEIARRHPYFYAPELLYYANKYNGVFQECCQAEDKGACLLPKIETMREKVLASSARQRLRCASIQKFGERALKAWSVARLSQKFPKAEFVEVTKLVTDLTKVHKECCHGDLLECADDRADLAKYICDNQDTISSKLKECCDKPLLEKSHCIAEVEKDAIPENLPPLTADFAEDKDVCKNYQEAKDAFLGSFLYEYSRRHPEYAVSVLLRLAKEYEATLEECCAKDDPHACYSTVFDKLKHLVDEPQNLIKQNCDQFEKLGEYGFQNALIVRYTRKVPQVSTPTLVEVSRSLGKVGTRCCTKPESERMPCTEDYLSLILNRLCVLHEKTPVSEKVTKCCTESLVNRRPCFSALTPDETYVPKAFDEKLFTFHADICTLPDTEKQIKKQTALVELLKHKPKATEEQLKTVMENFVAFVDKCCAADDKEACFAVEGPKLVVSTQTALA
# B1: m36.1 (VHH)
# VHH: QVQLVQSGGGLVQPGGSLRLSCAASTFDFSDYEMSWVREAPGKGLEWIGEINDSGNTIYNPSLKNRVTISRDNSKNTLYLQMNTLRAEDTAIYYCAIYGGNSGGEYWGQGTLVTVSS
# B2: m36.4 (VHH)
# VHH: B1 VHH with T26A, N65S
# B3: m36.5 (VHH)
# VHH: B1 VHH with T26A, N65S, R86S
# B4: m36.2 (VHH)
# VHH: B1 VHH with V12I, T26A, E39Q, A40D, S54R, N65S
# Biological target: BSA (Bos taurus) (UniProt P02769)
# Experiment: ELISA, OD 450 nm, BSA as unrelated antigen
row,Binder,binding
1,B1,no binding (tested: about 6700 nM)
2,B2,no binding (tested: about 6700 nM)
3,B3,no binding (tested: about 6700 nM)
4,B4,no binding (tested: about 6700 nM)

# From US20130108636A1
